Measured values published in paper PMC4192513, “A Novel Protein-Protein Interaction in the RES (REtention and Splicing) Complex” (The Journal of Biological Chemistry, 2014).
No constants are given. Whether binding was seen depends on the method and setting. For some of these results: Binding seen in cells or lysates may run through a third protein. Some binding calls cover weakened binding; strength is not graded here. For some of these results: Where a sequence is shown, tags or fusion partners need not be part of it.

Chains of the proteins cited; added tags and fusions are not shown. Lines headed by an entry give the natural chain unless they say otherwise; changes in a name come on top.
UniProt P46947: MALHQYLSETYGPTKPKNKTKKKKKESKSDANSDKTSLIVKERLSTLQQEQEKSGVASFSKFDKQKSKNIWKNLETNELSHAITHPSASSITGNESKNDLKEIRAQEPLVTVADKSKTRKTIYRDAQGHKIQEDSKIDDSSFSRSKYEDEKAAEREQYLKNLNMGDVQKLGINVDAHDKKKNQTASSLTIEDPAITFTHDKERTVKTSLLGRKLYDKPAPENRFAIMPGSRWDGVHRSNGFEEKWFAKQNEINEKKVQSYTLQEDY

T1: His6-Snu17p (wild type, operon co-expression) (S. cerevisiae) (UniProt P40565)
T1 sequence: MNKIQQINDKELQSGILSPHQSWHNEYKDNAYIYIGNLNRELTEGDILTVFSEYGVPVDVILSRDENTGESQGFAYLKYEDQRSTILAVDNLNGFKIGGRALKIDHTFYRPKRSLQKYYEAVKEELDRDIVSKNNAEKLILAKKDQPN

T2: His6-Snu17p F95A,K96D,I97A (operon co-expression) (S. cerevisiae) (UniProt P40565)
T2 sequence: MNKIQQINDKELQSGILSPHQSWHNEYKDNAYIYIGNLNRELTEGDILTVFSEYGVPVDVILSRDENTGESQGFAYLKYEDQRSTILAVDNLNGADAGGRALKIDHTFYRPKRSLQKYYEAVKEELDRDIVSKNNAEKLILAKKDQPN


What was measured:
[1] = biological target: Snu17p (residues 1-113) (S. cerevisiae) (UniProt P40565); assay: NMR titration; 1H,15N correlation (HSQC) spectra of 15N-labelled Snu17p (residues 1-113) on addition of Bud13p peptides; 298 K; 20 mM sodium phosphate pH 6.3, 25 mM NaCl, 2 mM DTT or TCEP; both purified
[2] = biological target: Snu17p (residues 1-113) (S. cerevisiae) (UniProt P40565); assay: ITC; VP-ITC, 25 °C, NMR buffer (20 mM sodium phosphate pH 6.3, 25 mM NaCl, 2 mM DTT or TCEP); Snu17p (residues 1-113) 30-70 uM in the cell, Bud13p ligands 0.6-1.1 mM in the syringe; one- or two-step binding models; both purified
[3] = biological target: T1, His6-Snu17p (wild type, operon co-expression) (S. cerevisiae); assay: pull-down; one-step Ni-NTA purification of His6-Snu17p, Bud13p and Pml1p co-expressed from an operon in E. coli; fractions on Coomassie-stained denaturing gels
[4] = biological target: T2, His6-Snu17p F95A,K96D,I97A (operon co-expression) (S. cerevisiae); assay: as above

binding [1] | binding [2] | binding [3] | binding [4] | Binder
binds weakly | binds weakly |  |  | AIMPGSRWDGVHRS (peptide, UniProt P46947 225-238) [Bud13p peptide (residues 225-238)]
 |  | binds | binds | Pml1p (operon co-expression) (protein, UniProt Q07930 1-204) MFHRRKRPYNTRNYGHDDKKFKSQYIDIMPDFSPSGLLELESNNKEGIALKHVEPQDAISPDNYMDMLGLEARDRTMYELVIYRKNDKDKGPWKRYDLNGRSCYLVGRELGHSLDTDLDDRTEIVVADIGIPEETSSKQHCVIQFRNVRGILKCYVMDLDSSNGTCLNNVVIPGARYIELRSGDVLTLSEFEEDNDYELIFMNV
